Results are given in words; binding and its absence hold for the method and conditions named. Binding calls can cover weak binding; strength is not graded here. Where a sequence is shown, tags or fusion partners need not be part of it. For part of these data: In cells and extracts the contact can be indirect.
How the values were obtained:
[1] = target: T1, strep-tag-fortilin (recombinant human fortilin with an N-terminal Strep-tag II) (human) (UniProt P13693); assay: SPR; Biacore 3000, 25 °C, HBS-EPS (0.01 M HEPES, 0.5 M NaCl, 3 mM EDTA, 0.005% Tween 20, pH 7.4), 20 μL/min; forms of rh-fortilin amine-coupled to a CM5 chip; rh-TGF-β1 injected (0 to 200 nM; 100 nM for scouting); both purified
T1 sequence: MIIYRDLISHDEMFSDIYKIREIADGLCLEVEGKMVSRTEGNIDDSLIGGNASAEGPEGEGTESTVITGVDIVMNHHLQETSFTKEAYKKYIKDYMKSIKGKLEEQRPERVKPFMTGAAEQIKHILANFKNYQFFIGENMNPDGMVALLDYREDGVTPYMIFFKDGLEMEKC

C-His6-fortilin (human) = target: T2, C-His6-fortilin (human) (UniProt P13693); assay: as above
T2 sequence: T1 sequence

N-His6-fortilin (human) = target: T3, N-His6-fortilin (human) (UniProt P13693); assay: SPR; co-binding/inhibition assay: 100 nM rh-TGF-β1 pre-incubated with increasing concentrations of TGFβRII-Fc (or with Fc) and injected over the fortilin-coupled chip; Fc injected alone as control; Biacore 3000, 25 °C, HBS-EPS; both purified
T3 sequence: T1 sequence

[2] = target: T4, recombinant human Flag-tagged fortilin (human) (UniProt P13693); assay: co-IP; same procedure with recombinant Flag-fortilin, TGF-β2 or TGF-β3 and His6-NQO2; anti-fortilin mAb or IgG; five washes in Buffer B; western blot; both purified
T4 sequence: T1 sequence

[3] = target: T4, recombinant human Flag-tagged fortilin (human); assay: co-IP; in vitro mixture of recombinant Flag-fortilin, TGF-β1, Flag-p53 and His6-NQO2 in Buffer A (10 mM Tris pH 7.4, 100 mM NaCl, 0.01% NP-40); rabbit anti-fortilin mAb or rabbit IgG, 2 h room temperature; anti-rabbit IgG Dynabeads; four washes in Buffer B (0.3% NP-40); western blot; both purified

recombinant human TGF-β1 produced in-house (ligand)
binding [1]: binds
binding (C-His6-fortilin (human)): binds
binding (N-His6-fortilin (human)): binds

recombinant human TGF-β2 (ligand)
binding [2]: binds

recombinant human TGF-β3 (ligand)
binding [2]: binds

recombinant human TGF-β1 (eBioscience) (ligand)
binding [3]: binds
